These are yes or no findings as the source states them, for the method shown.
Molecular target: disulphide-trapped C9 variant (F262C/V405C) (human) (UniProt P02748)
Assay: AUC; sedimentation velocity, C9 at 0.5 mg/ml (~7.9 μM) in 10 mM HEPES pH 7.2, 150 mM NaCl, 1 mM EDTA, 25 °C; both purified

Chains of the proteins cited; added tags and fusions are not shown. Lines headed by an entry give the natural chain unless they say otherwise; changes in a name come on top. A line that says so, or that is headed by a name, gives the form on record, which may keep a tag or linker.
disulphide-trapped C9 variant (F262C/V405C) (P02748, form named): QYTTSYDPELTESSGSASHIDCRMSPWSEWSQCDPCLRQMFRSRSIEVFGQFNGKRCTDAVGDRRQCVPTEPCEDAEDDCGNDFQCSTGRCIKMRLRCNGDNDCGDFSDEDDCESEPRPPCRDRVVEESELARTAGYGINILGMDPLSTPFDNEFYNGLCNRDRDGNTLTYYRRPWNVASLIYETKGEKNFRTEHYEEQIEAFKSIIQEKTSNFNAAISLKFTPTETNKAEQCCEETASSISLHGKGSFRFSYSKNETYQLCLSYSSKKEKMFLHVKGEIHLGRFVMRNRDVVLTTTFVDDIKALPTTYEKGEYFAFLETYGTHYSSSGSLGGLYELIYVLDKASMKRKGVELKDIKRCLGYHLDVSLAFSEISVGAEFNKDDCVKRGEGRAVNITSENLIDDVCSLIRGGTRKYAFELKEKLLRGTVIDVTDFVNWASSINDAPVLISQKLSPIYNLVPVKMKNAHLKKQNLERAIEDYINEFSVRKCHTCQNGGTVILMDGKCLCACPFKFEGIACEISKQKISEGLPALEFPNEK

Substance: disulphide-trapped C9 variant (F262C/V405C) (from UniProt P02748 22-559)
- binding: no binding (tested: ~7.5 µM)

From paper PMC9838529
